Results taken from paper PMC4040925.
These are yes or no findings as the source states them, for the method shown. For some of these results: A result given as binding can be weak or reduced; the word gives no strength.

Chains of the proteins cited; added tags and fusions are not shown. Lines headed by an entry give the natural chain unless they say otherwise; changes in a name come on top. A line that says so, or that is headed by a name, gives the form on record, which may keep a tag or linker.
paxillin (P49023, form named): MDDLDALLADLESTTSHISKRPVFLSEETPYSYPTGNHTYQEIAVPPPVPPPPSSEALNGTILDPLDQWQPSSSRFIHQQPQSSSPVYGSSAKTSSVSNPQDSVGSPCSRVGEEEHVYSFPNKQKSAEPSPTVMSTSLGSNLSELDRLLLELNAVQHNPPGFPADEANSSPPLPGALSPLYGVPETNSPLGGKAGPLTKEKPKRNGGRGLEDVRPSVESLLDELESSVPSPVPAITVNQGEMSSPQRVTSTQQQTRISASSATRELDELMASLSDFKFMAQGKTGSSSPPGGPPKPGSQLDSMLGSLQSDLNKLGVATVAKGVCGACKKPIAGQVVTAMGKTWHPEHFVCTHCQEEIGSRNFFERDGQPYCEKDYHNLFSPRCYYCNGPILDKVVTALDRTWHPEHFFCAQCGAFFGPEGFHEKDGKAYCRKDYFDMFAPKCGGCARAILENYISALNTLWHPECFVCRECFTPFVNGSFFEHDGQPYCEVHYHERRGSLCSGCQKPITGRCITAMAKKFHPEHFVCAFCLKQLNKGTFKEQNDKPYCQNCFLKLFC
UniProt P18206: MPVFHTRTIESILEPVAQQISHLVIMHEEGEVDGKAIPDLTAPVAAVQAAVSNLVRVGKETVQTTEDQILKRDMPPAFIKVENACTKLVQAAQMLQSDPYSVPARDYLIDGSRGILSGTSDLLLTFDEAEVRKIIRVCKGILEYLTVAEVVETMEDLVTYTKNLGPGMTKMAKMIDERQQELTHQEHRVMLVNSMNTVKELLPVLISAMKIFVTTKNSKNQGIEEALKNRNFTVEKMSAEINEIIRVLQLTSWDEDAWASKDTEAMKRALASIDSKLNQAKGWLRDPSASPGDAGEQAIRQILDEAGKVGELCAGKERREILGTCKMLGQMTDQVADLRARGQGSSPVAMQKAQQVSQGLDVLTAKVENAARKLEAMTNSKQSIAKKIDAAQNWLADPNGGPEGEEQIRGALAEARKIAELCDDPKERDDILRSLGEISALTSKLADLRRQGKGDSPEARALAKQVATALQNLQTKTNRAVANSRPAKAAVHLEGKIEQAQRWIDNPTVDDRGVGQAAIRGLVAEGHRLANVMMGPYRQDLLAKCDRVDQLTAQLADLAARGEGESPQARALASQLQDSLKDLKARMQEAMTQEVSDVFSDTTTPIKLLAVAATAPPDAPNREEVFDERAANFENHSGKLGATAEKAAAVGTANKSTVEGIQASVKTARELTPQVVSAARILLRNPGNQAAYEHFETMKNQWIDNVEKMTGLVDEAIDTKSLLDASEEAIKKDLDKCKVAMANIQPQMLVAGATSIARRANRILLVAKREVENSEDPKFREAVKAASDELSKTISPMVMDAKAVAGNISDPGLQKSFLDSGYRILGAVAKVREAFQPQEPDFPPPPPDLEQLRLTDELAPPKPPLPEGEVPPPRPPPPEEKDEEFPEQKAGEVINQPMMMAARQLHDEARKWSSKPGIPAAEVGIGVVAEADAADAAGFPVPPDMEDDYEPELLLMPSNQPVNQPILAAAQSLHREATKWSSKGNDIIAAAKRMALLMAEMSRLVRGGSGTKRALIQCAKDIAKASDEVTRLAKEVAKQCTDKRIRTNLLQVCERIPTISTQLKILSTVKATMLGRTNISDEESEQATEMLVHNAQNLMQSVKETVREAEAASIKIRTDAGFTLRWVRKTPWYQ
UniProt P50552: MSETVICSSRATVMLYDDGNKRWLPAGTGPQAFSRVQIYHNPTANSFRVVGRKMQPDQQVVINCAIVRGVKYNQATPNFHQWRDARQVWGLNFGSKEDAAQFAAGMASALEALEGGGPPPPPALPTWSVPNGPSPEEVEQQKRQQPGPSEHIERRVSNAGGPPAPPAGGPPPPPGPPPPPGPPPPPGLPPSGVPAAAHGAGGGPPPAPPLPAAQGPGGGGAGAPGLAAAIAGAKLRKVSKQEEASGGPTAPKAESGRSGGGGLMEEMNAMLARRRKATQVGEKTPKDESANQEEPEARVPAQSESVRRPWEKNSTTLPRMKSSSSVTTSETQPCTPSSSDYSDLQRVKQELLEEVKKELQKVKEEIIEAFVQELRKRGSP

Assays:
paxillin [1] = molecular target: paxillin (UniProt P49023); assay: fluorescence cross-correlation spectroscopy (FCCS); cytosol of live NIH3T3 cells co-expressing one protein tagged with meGFP and the other with TDmKate2; 37°C; association score against the negative control (p-value <0.02)
paxillin [2] = molecular target: paxillin (UniProt P49023); assay: fluorescence cross-correlation spectroscopy (FCCS); cytosol of live REF52 cells co-expressing one protein tagged with meGFP and the other with TDmKate2; 37°C; association score against the negative control meGFP + TDmKate2 (Fisher's exact test, p-value <0.0001); apparent Ka
vinculin = vinculin (UniProt P18206); assay: as above
α-actinin = assay: as above

With vinculin (from UniProt P18206-2) the binding (paxillin [1]) was “binds” and the binding (paxillin [2]) was “binds”.

In the case of VASP (from UniProt P50552 1-380), the binding (vinculin) is reported as “binds”.

B1: zyxin (protein, UniProt Q15942 1-572)
chain: MAAPRPSPAISVSVSAPAFYAPQKKFGPVVAPKPKVNPFRPGDSEPPPAPGAQRAQMGRVGEIPPPPPEDFPLPPPPLAGDGDDAEGALGGAFPPPPPPIEESFPPAPLEEEIFPSPPPPPEEEGGPEAPIPPPPQPREKVSSIDLEIDSLSSLLDDMTKNDPFKARVSSGYVPPPVATPFSSKSSTKPAAGGTAPLPPWKSPSSSQPLPQVPAPAQSQTQFHVQPQPQPKPQVQLHVQSQTQPVSLANTQPRGPPASSPAPAPKFSPVTPKFTPVASKFSPGAPGGSGSQPNQKLGHPEALSAGTGSPQPPSFTYAQQREKPRVQEKQHPVPPPAQNQNQVRSPGAPGPLTLKEVEELEQLTQQLMQDMEHPQRQNVAVNELCGRCHQPLARAQPAVRALGQLFHIACFTCHQCAQQLQGQQFYSLEGAPYCEGCYTDTLEKCNTCGEPITDRMLRATGKAYHPHCFTCVVCARPLEGTSFIVDQANRPHCVPDYHKQYAPRCSVCSEPIMPEPGRDETVRVVALDKNFHMKCYKCEDCGKPLSIEADDNGCFPLDGHVLCRKCHTARAQT
With B1 the binding (α-actinin) was “no binding”.
